From patent publication US8063069B2, “Prucalopride-N-oxide” (Janssen Pharmaceutica N.V., priority 2002, dated 2011)
For at least one compound, name, drawing or mass did not settle the structure.

Assay: pharmacokinetics of prucalopride in plasma after single oral administration to beagle dogs
Assay type: in vivo
Conditions: in words
Description: Two male beagle dogs were dosed orally with 1 ml of a test formulation comprising 2.5 mg/kg of 4-amino-5-chloro-2,3-dihydro-N-[1-(3-methoxypropyl)-4-piperidinyl]-7-benzofuran-carboxamide (“prucalopride”).
After a wash-out period of four weeks, the same two dogs were dosed orally with 1 ml of a test formulation comprising 2.61 mg/kg of compound (1).
Blood samples were taken via the jugular vein immediately before dosing (blank sample) and at 0.25 h, 0.5 h, 1 h, 1.5 h, 2 h, 4 h, 6 h, 8 h, and 24 h after dosing. Aliquots of 10 ml were collected in EDTA tubes. Immediately after collection of the blood samples, plasma samples were prepared by centrifugation at approximately 1700×g for approximately 10 minutes.
Concentrations of prucalopride in the plasma samples were determined by LC/MS/MS. The quantification limit for prucalopride was 5.0 ng/ml.
Based on the individual plasma concentration-time data, using the actual sampling times, the following pharmacokinetic parameters were determined for prucalopride after oral administration of prucalopride and compound (1) and summarized in Table 1. • Cmax peak plasma concentration, determined by visual inspection of the data • Tmax time to reach the peak plasma concentration, determined by visual inspection of the data. • AUC0-∞ area under the plasma concentration-time extrapolated to infinity

COCCC[N@+]1([O-])CC[C@@H](NC(=O)c2cc(Cl)c(N)c3c2OCC3)CC1.O [compound (1), cis-4-amino-5-chloro-2,3-dihydro-N-[1-(3-methoxypropyl)-4-piperidinyl]-7-benzofurancarboxamide, N-oxide monohydrate]
time Tmax to reach Cmax of prucalopride, compared with oral prucalopride: later
